In all, about 1,200 compounds went through this assay and about 15 (1%) were called active. Another 7% or so got no clear call; they are omitted. Calls follow the shape of the dose curve; as a rule, active = well fitted activation curve with a large enough effect; inconclusive = small, poorly fitted or top-dose-only effect; inactive = flat fitted curve, though single readings scatter. The list shows a part of the results.
Target: Beta-2 adrenergic receptor (Homo sapiens) (UniProt P07550)
Experiment: qHTS assay of beta-arrestin-biased ligands of beta2-adrenergic receptor: Hit Validation;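 also: plate controls were DMSO for no effect and maximal isoproterenol or metaproterenol response for full effect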
Settings: cell-based beta-arrestin recruitment to beta2AR; Potency: activation; series mostly up to 46.1 µM; activation: at the top concentration
Procedure, shortened: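 Luminescent tTA-driven luciferase reporter in Tango cells, read after 18 h at 37 °C with compound and 15 min with substrate mix (0.15 mM ATP, 0.44 mM D-luciferin, final). Concentration-response fits categorized by curve class.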

activation, inactive:
COc1cc(/C=N/NC(=O)CCn2c3ccccc3c3ccccc32)ccc1O -0.35%
COC(=O)c1c(C)[nH]c(C(=O)OCC(=O)c2ccc(C)s2)c1C -0.963%
C/C(=N\Nc1ncc(Cl)cc1Cl)c1ccc(N2CCOCC2)cc1 -1.87%
CCc1ccc2c(COC(=O)C3CSC4(C)CCC(=O)N34)cc(=O)oc2c1 (centres undefined) -3.4%
NNC(=S)NC1CCCCC1 -0.237%
CC(C)CC(=O)NC(=S)Nc1ccc(Cl)cn1 -0.717%
On1ccccc1=S 0.091%
COc1cccc(/C=N/Nc2nc(Nc3ccccc3)nc(-n3nc(C)cc3C)n2)c1O -0.263%
CCNC(=S)N/N=C(\C)c1ccco1 -2.33%
CC1(C)CC(=O)C2=C(C1)Nc1cc(C(=O)c3ccccc3)ccc1NC2c1ccccn1 (centres undefined) -0.252%
Cc1ccc(OCC(=O)N/N=C/C=C/c2ccco2)cc1 -2.15%
N#CC(C(=S)Nc1ccccc1)c1nc2ccccc2[nH]1 (centres undefined) -1.77%
Cc1ccc(C(=O)NCC(=O)OCc2csc(-c3ccccc3)n2)cc1 -3.26%
O=S1(=O)Nc2c(ccc3cccnc23)-c2ccccc21 -3.15%
COc1ccc(C=C(c2nc3ccccc3s2)c2nc3ccccc3s2)cc1O 5.64%
S=c1[nH]c2cc(-c3ccccc3)ccc2o1 -4.88%
O=C(CSCC(=O)Nc1cccc([N+](=O)[O-])c1)Nc1ccccc1 -2.02%
Cc1ccc(NC(=S)NNC(C)(C)C)cc1 -6.52%
C=CCNC(=S)N/N=C/c1ccc(C(C)(C)C)cc1 -5.18%
S=c1nc(-c2ccccc2)[nH]c2ccc(Br)cc12 -3.2%
CCNc1cc(S(=O)(=O)C(F)(F)F)ccc1N -1.95%
COc1ccc(NC(=S)N2CCNC(=O)C2CC(=O)Nc2cccc(Cl)c2C)cc1 (centres undefined) -1.3%
CC(=O)N(c1ccccc1)C(C)c1nc(C#N)c(C#N)nc1C (centres undefined) -1.35%
Cc1cccnc1NC(=S)NC(=O)c1cncc(Br)c1 -1.51%
Cc1ccc(NC(=O)c2ccc3c(c2)C(=O)N(CC2CCCO2)C3=O)cc1C (centres undefined) -0.599%
Cc1cc(C)cc(NC(=O)CC2NCCNC2=O)c1 (centres undefined) -2.19%
CC1CC(C)(C)n2c(O)c(N=NC(N)=S)c3cccc1c32 (centres undefined) -1.18%
C/C(=N\NC(=S)NC(C)C)c1ccc(Cl)s1 -8.25%
CCOc1cccc(CNc2ccc(O)cc2)c1OCc1ccc(Cl)cc1 0.122%
CCN(CC)C(=O)[C@H]1C[C@H](CC(=O)NCc2cccc(C(F)(F)F)c2)C(=O)N2CCc3c([nH]c4cc(-c5ccco5)ccc34)[C@]12C 0.311%
O=C(CSc1nnc(Nc2ccccc2)s1)Nc1cccc(S(=O)(=O)N2CCCCC2)c1 -0.135%
CCSc1nnc(NC(=O)c2ccccn2)s1 -5.08%
Cc1cc(C)n(-c2nc(NCCCO)c3c4c(sc3n2)CCCC4)n1 -1.57%
C/C(=N/NC(=S)Nc1cccc(C)c1)c1cccc([N+](=O)[O-])c1 -2%
CC(=O)c1cc2c(cc1NC(=O)c1ccc(C)cc1)OCO2 3.05%
Cc1nc(COC(=O)c2ccc(S(=O)(=O)N3CCCC3)cc2)cs1 -0.855%
NS(=O)(=O)c1ccc(CCNC(=O)CSc2ccc(Cl)cc2)cc1 -1.77%
COc1ccc(C(CNC(=O)c2ccc(C)c(S(=O)(=O)Nc3ccccc3OC)c2)N2CCCC2)cc1 (centres undefined) -0.677%
CC(/C=C/c1ccc2c(c1)OCO2)=N/NC(=O)c1cccnc1 -3.83%
C/C(=N\NC(=S)NCc1ccccc1)c1ccc(Br)cc1 -1.17%
Cc1cccc(NC(=S)Nc2cccc(C)n2)n1 -3.32%
N=c1n(Cc2ccccc2)c2ccccc2n1Cc1ccccc1 -2.83%
CNC(=S)N/N=C/c1cc(C)n(-c2ccc(Cl)c(Cl)c2)c1C -2.09%
C/C(=N\NC(=S)NCc1ccccc1)c1ccc2ccccc2c1OC(F)F -2.23%
C[C@@H](NC(=O)c1coc(=O)c(Br)c1)c1ccccc1 -3.18%
FC(F)(F)c1cc(Nc2ccccc2)nc(-c2ccccn2)n1 -0.114%
Cc1nn(C)cc1/C=N/NC(=S)Nc1ccccc1 -2.3%
Cc1[nH]c2ccccc2c1/C=N/Nc1cccc(C(=O)O)c1 -0.789%
CN1CCN(C(=O)c2ccccc2[N+](=O)[O-])CC1 -4.99%
CCn1c(SCC(=O)N/N=C/C=C/c2ccco2)nc2ccccc21 -2.47%
CCOC(=O)N1C/C(=C\c2ccccc2)C(=O)/C(=C/c2ccccc2)C1 -3.82%
Cc1ccc(SCc2cc(=O)[nH]c(/N=C(\N)Nc3ccc(C)c(C)c3)n2)cc1 -2.5%
COC(=O)c1cccc(/C=N/NC(N)=S)c1O -3.45%
Cc1ccc(NC(=S)N2CCn3cccc3C2c2cccnc2)cc1 (centres undefined) 4.9%
CCNC(=S)NNC(=O)c1cc(-c2cc(C)ccc2C)nc2ccccc12 0.0925%
CN(Cc1ccccc1)CC(O)COc1ccc(CNCc2nccn2C)cc1 (centres undefined) -3.53%
O=C1c2ccccc2[C@@H]2C[C@@H](O)[C@H](Nc3cccc4ccccc34)CCN12 -2.47%
COc1ccc(/C(C)=N/NC(=S)NCCc2ccccc2)c(O)c1 -2.86%
CCN(C(=O)Cn1c(Cl)nc2c1c(=O)n(C)c(=O)n2C)C1CCCCC1 -1.79%
CNC(=S)N/N=C(\C)c1ccc(Cl)c(Cl)c1 -0.919%
Cn1c(=O)c2c(-c3ccccc3)n(-n3cnnc3)cc2n(C)c1=O -0.697%
NC(=S)NN=C(Cc1ccccc1)Cc1ccccc1 -1.78%
O=C(COC(=O)c1ccc(CO)cc1)NCc1cccs1 2.78%
CCCCN(CCCC)CCCNC(=O)Cn1cc2c(n1)-c1c(oc(C(=O)N3CCCC3)c1C)CC2 11%
CCCCn1c(-c2sccc2C)n[nH]c1=S -5.68%
COc1ccc(C(NC(=O)/C=C/c2ccco2)c2ccc(OC)c(OC)c2)cc1OC -2.72%
CCNC(=S)/N=C(\N)Nc1nc(C)c2cc(C)ccc2n1 -1.6%
CSCC[C@H](NC(=O)c1ccc(OCC2CCCO2)cc1)c1nc2ccccc2[nH]1 (some centres undefined) 3.23%
Cc1cc(C2CCCCC2)n(O)c(=O)c1 -2.4%
Cc1sc2nc(CSCC(=O)Nc3c(F)cccc3F)[nH]c(=O)c2c1C -4.73%
CC1=NN(C(N)=S)C(=O)C1N=Nc1cccc(C)c1 (centres undefined) -2.95%
O=C(NC1CCN(Cc2ccccc2)CC1)c1c(F)cccc1F -3.57%
COC(=O)c1ccc(-c2ccc(F)cc2)nc1C -3.87%
CCCCCC(=O)Nc1cccc(C2=NOC3(C2)C[C@@H](C(N)=O)N(C(=O)CC(c2ccccc2)c2ccccc2)C3)c1 (some centres undefined) -2.41%

Molecules listed so far that contain a nitro group on carbon (three):
activation, inactive:
O=C(CSCC(=O)Nc1cccc([N+](=O)[O-])c1)Nc1ccccc1 -2.02%
C/C(=N/NC(=S)Nc1cccc(C)c1)c1cccc([N+](=O)[O-])c1 -2%
CN1CCN(C(=O)c2ccccc2[N+](=O)[O-])CC1 -4.99%

Two consecutive entries already listed:
activation, inactive:
CSCC[C@H](NC(=O)c1ccc(OCC2CCCO2)cc1)c1nc2ccccc2[nH]1 (some centres undefined) 3.23%
Cc1cc(C2CCCCC2)n(O)c(=O)c1 -2.4%

— PubChem BioAssay AID588463 (National Center for Advancing Translational Sciences (NCATS), 2011)
